# PubChem BioAssay AID651640 (Broad Institute, 2012)
# Among all 350,000 compounds or so, about 6,000 (1.7%) were called active. Inconclusive means that the source gave no clear call. Such entries were picked first, then a sample of the others. Rule as the data show it: active = CPE inhibition above about 20% (passing the limit was not always enough); inconclusive = no clear call, values can overlap the other calls; tested in BHK-21 cells.
# Experiment: protection of cells from dengue 2 killing – plate reader, single concentration, primary screen (AID 651640);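 also: 0% = median of neutral control wells and 100% = median of positive control wells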
# Conditions: DENV2-infected cells, cytopathic effect rescue, at 9.99 µM, hits give high values
row,Structure (SMILES),CPE inhibition
1,O=C(CN1C(=O)CSc2ccc(S(=O)(=O)N3CCOCC3)cc21)N1CCCCC1,inconclusive: 24.4%
2,O=C(C[C@H]1C=C[C@@H](NC(=O)C2CCC2)[C@@H](CO)O1)NCC1CC1,active: 58.4%
3,COc1ccc(S(=O)(=O)N2CC3(CN(Cc4ccccc4OC)[C@H](CO)c4[nH]c5cc(OC)ccc5c43)C2)cc1,inactive: -6.25%
4,CC(C(=O)NC(C)(C)C)N(C(=O)CS(=O)CC(=O)Nc1ccc(F)cc1)C1CCCC1 (stereo not drawn),inconclusive: 28.6%
5,O=S(=O)(NCc1ccc(F)cc1)c1ccccc1Br,active: 30.7%
6,O=C(NNC(=O)C12CC3CC(CC(C3)C1)C2)c1cccc([N+](=O)[O-])c1,active: 20.3%
7,C[C@@H]1CCCCO[C@@H](CN(C)C(=O)C2CCCCC2)[C@H](C)CN([C@H](C)CO)C(=O)c2cc(NC(=O)c3ccncc3)ccc2O1,active: 136%
8,CC(c1nc2ccccc2n1Cc1ccccc1)N1CCCCC1 (stereo not drawn),inconclusive: 23.3%
9,O=C(c1cccc(F)c1)N1CC2(C1)[C@H](c1ccccc1)[C@H](CO)N2C(=O)C1CC1,active: 33.9%
10,COCCn1nnnc1C(c1cc2cc(C)ccc2[nH]c1=O)N1CCN(C2CCCCC2)CC1 (stereo not drawn),active: 29.7%
11,Cc1ccc(CNC(=S)NC2CCC(C(C)(C)C)CC2)cc1 (stereo not drawn),inconclusive: 28.7%
12,COc1ccc(S(=O)(=O)N[C@H]2C=C[C@@H](CC(=O)N3CCN(c4ccccc4)CC3)O[C@@H]2CO)cc1,inconclusive: 37.6%
13,CCCC(=O)Nc1ccc2c(c1)C(=O)N(C)[C@@H]1CC[C@H](CC(=O)NCCc3ccccc3)O[C@H]1CO2,inconclusive: 72.9%
14,COc1ccc(NC(C)=O)cc1NC(=O)c1c(C)noc1C,inconclusive: 22.8%
15,COc1ccc(NC(=O)Nc2cccc3c2O[C@H](CN(C)S(=O)(=O)c2ccc(C)cc2)[C@H](C)CN([C@@H](C)CO)C3=O)cc1,inactive: -6.38%
16,Cc1cc(O)c2c(c1)C(=O)c1cc(O)cc(O)c1C2=O,inactive: -3.6%
17,CCN(CC(=O)Nc1ccccc1C(F)(F)F)C(=O)c1ccc2c(c1)NC(=O)C(C)S2 (stereo not drawn),inconclusive: 22.2%
18,Cc1ccc(S(=O)(=O)c2nc(S(C)(=O)=O)sc2N2CCCCC2C)cc1 (stereo not drawn),inconclusive: 27.5%
19,N#Cc1cccnc1N1CCN(C(=O)c2ccccc2)CC1,active: 52.1%
20,OCCc1c[nH]c2ccccc12,inconclusive: 39.3%
21,Cc1cc(C(=O)C(C)Sc2cccc[n+]2[O-])c(C)n1-c1ccc(Cl)cc1 (stereo not drawn),inconclusive: 42.2%
22,C[C@@H]1CN([C@@H](C)CO)C(=O)Cc2cc(NC(=O)Nc3ccc(F)cc3)ccc2O[C@H]1CN(C)Cc1ccncc1,inactive: -7.41%
23,COc1ccc(NC(=O)Nc2ccc3c(c2)CC(=O)N([C@H](C)CO)C[C@H](C)[C@@H](CN(C)Cc2ccc(Cl)c(Cl)c2)O3)cc1,inconclusive: 26.5%
24,COc1ccc(CNC(=O)CNC(=O)c2sc3ccccc3c2Cl)cc1OC,inconclusive: 28.4%

# An excerpt from above in order of formula weight, descending.
row,Structure (SMILES),CPE inhibition
10,COCCn1nnnc1C(c1cc2cc(C)ccc2[nH]c1=O)N1CCN(C2CCCCC2)CC1 (stereo not drawn),active: 29.7%
1,O=C(CN1C(=O)CSc2ccc(S(=O)(=O)N3CCOCC3)cc21)N1CCCCC1,inconclusive: 24.4%
21,Cc1cc(C(=O)C(C)Sc2cccc[n+]2[O-])c(C)n1-c1ccc(Cl)cc1 (stereo not drawn),inconclusive: 42.2%

# Additional results follow:

row,Structure (SMILES),CPE inhibition
1,O=C(NCc1ccccc1)[C@H]1CCCN1C(=O)[C@H]1CCCN1C(=O)c1cccs1,inconclusive: 36.3%
2,CN(C)CCN(C(=O)c1ccc2c(c1)CCCC2)c1nc2cc3c(cc2s1)OCCO3,inconclusive: 28%
3,CN1[C@@H]2CCC[C@H]1CC(NC(=O)c1nn(C)c3ccccc13)C2 (stereo partly drawn),inconclusive: 68%
4,CCC(C(=O)OCC(=O)Nc1ccc(OC)cc1OC)c1ccccc1 (stereo not drawn),inconclusive: 23.3%
5,CCN1[C@H](C(=O)OC)[C@@H](CO)[C@@H]2Cn3c(ccc(-c4cccc(F)c4)c3=O)[C@@H]21,inconclusive: 78.8%
6,CCOC(=O)c1cc2c(c(-c3cccc(C#CCN(C)C)c3)n1)[C@@H](CCO)N(S(=O)C(C)(C)C)C2 (stereo partly drawn),inconclusive: 29.6%
7,CCc1ccccc1NC(=S)NCC1CCN(c2ccc(OC)cc2)C1 (stereo not drawn),inactive: 8.39%
8,O=C(NCC[C@@H]1CC[C@@H](NS(=O)(=O)c2ccccc2)[C@H](CO)O1)c1ccc2c(c1)OCO2,inactive: 1.98%
9,CCOc1ccc(OCCCC(=O)ON=C(N)c2ccccc2Cl)cc1,inconclusive: 47.6%
10,COc1cc(OC)cc(C(=O)NC(=S)Nc2ccc3oc(=O)ccc3c2)c1,inactive: -1.25%
11,O=S(=O)(c1ccccc1)N1CCCCN2[C@@H](CO)[C@H](c3ccc(C#Cc4ccccc4)cc3)[C@@H]2C1,active: 22.4%
12,C[C@H]1CN([C@@H](C)CO)C(=O)c2cc(Br)cnc2O[C@H]1CN(C)C(=O)c1cnccn1,inconclusive: 21%
13,NNC(=O)CSc1nc(-c2ccccc2)nc2c1CCCC2,inconclusive: 20.6%
14,CCCNC(=O)C(Cc1ccc(I)cc1)NC(=O)c1ccc(C#N)cc1 (stereo not drawn),active: 32.8%
15,C[C@H]1CCCCO[C@@H](CN(C)CC2CCCCC2)[C@@H](C)CN([C@@H](C)CO)C(=O)c2cc(NC(=O)NC3CCCCC3)ccc2O1,inactive: -14.7%
16,Cn1nc(C(=O)OCc2ccc(Br)cc2F)c2ccccc2c1=O,inconclusive: 26.1%
17,O=C(C[C@H]1CC[C@@H]2[C@H](COC[C@@H](O)CN2Cc2nccs2)O1)NCc1ccc(-c2ccccc2)cc1,active: 33.9%
18,O=C(NC(c1ccc2c(c1)OCO2)c1ccccn1)C1CCN(CCOc2ccc(Cl)cc2Cl)CC1 (stereo not drawn),inconclusive: 87%
19,O=C(C[C@@H]1CC[C@@H]2[C@H](COC[C@H](O)CN2S(=O)(=O)c2ccccc2)O1)N[C@H]1CCN(Cc2ccccc2)C1,inconclusive: 75.4%
20,Cc1ccc(S(=O)(=O)NCC[C@H]2CC[C@@H](NC(=O)c3cccc(F)c3)[C@@H](CO)O2)cc1,inconclusive: 23.5%
21,CC(C)=CCOc1c2ccoc2cc2oc(=O)ccc12,active: 125%
22,COc1ccc2c3c([nH]c2c1)[C@@H](CO)N(C(=O)c1cccnc1)CC31CCN(C(=O)NC(C)C)CC1,inactive: -11.5%
23,C=CCn1c(SCC(=O)NCc2ccc3c(c2)OCO3)nnc1-c1cccnc1,inconclusive: 31.4%
24,CC(C)c1ccc(C(C(C(=O)c2ccccc2)N2CCOCC2)N2CCOCC2)cc1 (stereo not drawn),inconclusive: 67%
